Test results from publication PMC7411624.
Results are given in words; binding and its absence hold for the method and conditions named. In cells and extracts the contact can be indirect. These calls come from enrichment with a bait or labelling near it, and not all partners need be listed.

Target: V5-tagged Ae. aegypti Dicer 2 (Dcr2) (Ae. aegypti) (UniProt Q49LL4)
Test: affinity purification with mass spectrom

B1: Argonaute 2 (Ago2), endogenous in Aag2 cells (protein, UniProt C5J0H4 1-992)
chain: MILNARYLYIPCRQKQQQQQQQPQQQQQHQQKQQSQQQQQQQQQQQRSKEQGSQQQQRPQQQAQQQQPSQQQQQSQKQQHPQQQQQQRPQKQQQQFQQDQRPQQQQQQLQKQQQQQGQSWRPQSHDPSPASGSHSHSSSPSHAAALERVEEDFSKIKIDKQKIHSSALLPVLMRPNAHGTRGRAIKVEVNYIQLLLERLIPTAYHYDVDIQPAASRKWQRLAFSEFTKQMFPNHGFAFDGHKNAYAARRLQADVYEQEVKVRDEGRERRFKVAMKEAAVLDMTCLKTYMNNGSTLDKPMSAIQCLDIVLRTAYENNPRFIKFKKSIYVKPDRPDDIGSNHELWYGLFQSALLGARPFLNIDVSHKAFPTGGPVLRILVDMNRGQVPDRVTDWMSRDLHDFLKGMELSYTGPDGVSKLFKYNSIKSPANQQKFKLENGTEMTIDQYFRSKNKQLRYPSLPVLHVGSLVRNVMLPIELCSIPPGQALNKKHPDQCTQFIIRKSATDTATRKRKIMDLFNQIGYNNAPTIKEFGVSVGNNFETVDGRILDPPELSYRNDRRVKPMRGVWRADNMNFIIPSTEITRRELSWTILNLDGRTRPDAIDEFGRNIYQMSLKQGVQLQQFSMKNNFYEPRDMRFAVKDLDNIFDELKKRKIDLVFVVIPSPGRDGDVYAKVKQKAELCVGLLTQCIKSFTLDKKRGDMSTISNIWLKINAKTNGSNHVLAKNFKPPIARKTVMYVGADVTHPSPEQTNIPSVVGVAASYDLEGFRYNCCYRLQGPKDEMIRDLQNIVIKQLRQFKQTNQSLPELIMYYRDGVSEGQFQEVLTIELRAMQAAAASVQQGYKPNITFIVVQKRHHARFFPTANCPTEGRNNNVQPGTIVDRYITAPNQYQFFLVSHAAVQGVAKPTKYCVLYDDENCNPDQLQALTYYLCHMFTRCNRAVSYPAPTYYAHLAAYRGRVYIKDRPLNMNNLTKEYERMQIRTEIQDGHPMFFV
- binding: binds
